From patent publication US9352015B2, “Antimicrobial peptides” (priority 2009, dated 2016)
Read-outs that look alike come from different tables or passages of the source.

Assays:
Gram-negative bacteria = test: MIC against Gram-negative bacteria (V681 analog studies); format: cell-based
Experimental: (§1) Minimal inhibitory concentrations (MICs) are determined using a standard microtiter dilution method, with 3 sets of determinations, in LB (Luria-Bertani) no-salt medium (10 g of tryptone and 5 g of yeast extract per liter). In some cases, Mueller Hinton (MH) medium or Brain Heart Infusion (BHI) medium is used.
(§2) Briefly, cells were grown overnight at 37° C. in LB and diluted in the same medium. Serial dilutions of the peptides are added to the microtiter plates in a volume of 100 μl followed by 10 μl of bacteria to give a final inoculum of 5×10^5 colony-forming units/ml. Plates are incubated at 37° C. for 24 hours and MICs determined as the lowest peptide concentration that inhibited growth. Alternatively, minimal inhibitory concentrations are determined using a standard microtiter dilution method in a Mueller-Hinton (MH) medium. Briefly, cells are grown overnight at 37° C. in MH broth and diluted in the same medium. In some cases, serial dilutions of the peptides are added to the microtiter plates in a volume of 100 μl followed by 10 μl of bacteria to give a final inoculum of 1×10^5 colony-forming units/ml. Plates are incubated at 37° C. for 24 hours and MICs are determined as the lowest peptide concentration that inhibited growth.

Acinetobacter baumannii = format: cell-based
Experimental: as §1, §2
The biological activities of these six peptide analogs was determined against 11 clinical isolated of Acinetobacter baumannii (Table 9). Please note that the activities are reported in micromolar rather than microgram/ml. This allows a direct comparison on a molar basis with the effectiveness of molecules of different molecular weights whether peptides disclosed herein or antibiotics which in general are smaller in molecular mass. […] These are the highest antimicrobial activities observed in studies of antimicrobial peptides derived by modifying the peptide sequence of SEQ ID NO:24 (D1). D22 has the best hemolytic activity of the six analogs (D17-D22) and a therapeutic index of […] compared to […] for D1 (Table 9). D22 has no apparent advantage over D1 as determined in these experiments.

Pseudomonas aeruginosa = conditions: for Therapeutic index HC50/MIC: HC50 over geometric mean MIC; for Therapeutic index HC50/MIC / Therapeutic index Fold (improvement compared to D1): P. aeruginosa

SMILES | Fold increase in therapeutic index against Gram-negative bacteria compared to V681 (Gram-negative bacteria) [fold] | Therapeutic Index HC50/MIC against A. baumannii (Acinetobacter baumannii) | Therapeutic index against A. baumannii (printed with μM) (Acinetobacter baumannii; text to Table 9) [µM] | Fold improvement in therapeutic index against Pseudomonas aeruginosa strains compared to V681 (Pseudomonas aeruginosa) [fold] | Therapeutic index HC50/MIC (Pseudomonas aeruginosa; Brain Heart Infusion medium) | Therapeutic index Fold (improvement compared to D1) (Pseudomonas aeruginosa; Brain Heart Infusion medium) | Therapeutic index HC50/MIC (Pseudomonas aeruginosa; Mueller Hinton medium) | Therapeutic index Fold (improvement compared to D1) (Pseudomonas aeruginosa; Mueller Hinton medium)
CC[C@H](C)[C@H](NC(=O)[C@H](C)NC(=O)[C@H](CCCCN)NC(=O)[C@H](CC(C)C)NC(=O)[C@H](C)NC(=O)[C@@H](NC(=O)[C@H](Cc1c[nH]cn1)NC(=O)[C@H](CC(C)C)NC(=O)[C@@H](NC(=O)[C@@H](NC(=O)[C@H](CCCCN)NC(=O)[C@H](CCCCN)NC(=O)[C@H](C)NC(=O)[C@H](CO)NC(=O)[C@H](CCCCN)NC(=O)[C@H](Cc1ccccc1)NC(=O)[C@@H](NC(=O)[C@H](CCCCN)NC(=O)[C@H](CC(C)C)NC(=O)[C@H](Cc1ccccc1)NC(=O)[C@H](CO)NC(=O)[C@H](CCCCN)NC(=O)[C@H](Cc1c[nH]c2ccccc12)NC(=O)[C@H](CCCCN)NC(C)=O)[C@@H](C)O)[C@@H](C)O)C(C)C)[C@@H](C)O)C(=O)N[C@@H](CO)C(=O)N[C@@H](CO)C(N)=O [NKL] | 90 | – | – | – | – | – | – | –
CC[C@@H](C)[C@@H](NC(=O)[C@@H](C)NC(=O)[C@@H](CCCCN)NC(=O)[C@@H](CC(C)C)NC(=O)[C@@H](C)NC(=O)[C@H](NC(=O)[C@@H](Cc1c[nH]cn1)NC(=O)[C@@H](CC(C)C)NC(=O)[C@H](NC(=O)[C@H](NC(=O)[C@@H](CCCCN)NC(=O)[C@@H](CCCCN)NC(=O)[C@@H](C)NC(=O)[C@@H](CO)NC(=O)[C@@H](CCCCN)NC(=O)[C@@H](Cc1ccccc1)NC(=O)[C@H](NC(=O)[C@@H](CCCCN)NC(=O)[C@@H](CC(C)C)NC(=O)[C@@H](Cc1ccccc1)NC(=O)[C@@H](CO)NC(=O)[C@@H](CCCCN)NC(=O)[C@@H](Cc1c[nH]c2ccccc12)NC(=O)[C@@H](CCCCN)NC(C)=O)[C@H](C)O)[C@H](C)O)C(C)C)[C@H](C)O)C(=O)N[C@H](CO)C(=O)N[C@H](CO)C(N)=O [Peptide D1, Ac-KWKSFLKTFKSAKKTVLHTALKAISS-amide] | 80 | 128.1 | 128.1 | 53 | 13.5 | 1.00 | 34.0 | 1.00
